In paper doi:10.1101/2022.06.14.496170:
Results are given in words; binding and its absence hold for the method and conditions named. Some entries that bind do so weakly or less than the wild type.

Protein sequences, listed by entry. Tags and fused reporters are not part of them. Lines headed by an entry give the natural chain unless they say otherwise; changes in a name come on top. Chains listed by the source or under a name are the forms on record and can include a tag or linker.
PICLN (Arabidopsis thaliana) (Q9LVA7, form named): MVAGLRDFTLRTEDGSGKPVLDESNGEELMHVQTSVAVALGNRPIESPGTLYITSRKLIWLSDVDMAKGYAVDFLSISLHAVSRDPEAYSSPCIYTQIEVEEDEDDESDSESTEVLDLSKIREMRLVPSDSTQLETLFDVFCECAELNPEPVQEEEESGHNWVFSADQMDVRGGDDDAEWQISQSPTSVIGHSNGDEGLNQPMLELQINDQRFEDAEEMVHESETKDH
UniProt Q9SSF1: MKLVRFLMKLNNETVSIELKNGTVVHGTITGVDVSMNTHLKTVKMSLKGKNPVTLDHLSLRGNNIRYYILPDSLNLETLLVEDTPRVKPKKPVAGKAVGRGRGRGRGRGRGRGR

B1: SmD3B (Arabidopsis thaliana) (protein, UniProt Q9LM92 1-131)
chain: MSRSLGIPVKLLHEASGHIVTVELKSGELYRGSMIECEDNWNCQLEDITYTAKDGKVSQLEHVFIRGSKVRFMVIPDILKHAPMFKRLDARIKGKSSSLGVGRGRGAMRGKPAAGPGRGTGGRGAVPPVRR

Target: PICLN (Arabidopsis thaliana) (Arabidopsis thaliana) (UniProt Q9LVA7)
Test: two-hybrid

Row | Molecule | binding
1 | SmD1A (Arabidopsis thaliana) (from UniProt Q9SSF1 1-114) | binds
2 | B1 | binds
